In PMC11304230:
No constants are given. Whether binding was seen depends on the method and setting. For some assays here: In cells and extracts the contact can be indirect. Some binding calls cover weakened binding; strength is not graded here.

Sequences of proteins named here, by UniProt entry; tags and fusion partners are left off. Residues count along the entry.
UniProt O00505: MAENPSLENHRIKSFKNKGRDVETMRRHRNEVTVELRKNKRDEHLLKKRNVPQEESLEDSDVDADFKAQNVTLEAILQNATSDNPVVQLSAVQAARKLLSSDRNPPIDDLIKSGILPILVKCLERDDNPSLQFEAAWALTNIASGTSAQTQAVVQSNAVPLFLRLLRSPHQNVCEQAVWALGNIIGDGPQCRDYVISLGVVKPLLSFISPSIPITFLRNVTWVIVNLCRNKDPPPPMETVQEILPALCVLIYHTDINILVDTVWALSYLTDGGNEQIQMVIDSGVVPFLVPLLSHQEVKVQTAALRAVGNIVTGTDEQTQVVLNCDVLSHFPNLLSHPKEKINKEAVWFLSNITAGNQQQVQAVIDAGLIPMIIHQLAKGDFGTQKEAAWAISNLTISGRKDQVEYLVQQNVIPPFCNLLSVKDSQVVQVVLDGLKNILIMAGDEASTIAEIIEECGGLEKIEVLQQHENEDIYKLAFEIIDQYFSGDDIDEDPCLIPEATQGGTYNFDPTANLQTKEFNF
UniProt P52294: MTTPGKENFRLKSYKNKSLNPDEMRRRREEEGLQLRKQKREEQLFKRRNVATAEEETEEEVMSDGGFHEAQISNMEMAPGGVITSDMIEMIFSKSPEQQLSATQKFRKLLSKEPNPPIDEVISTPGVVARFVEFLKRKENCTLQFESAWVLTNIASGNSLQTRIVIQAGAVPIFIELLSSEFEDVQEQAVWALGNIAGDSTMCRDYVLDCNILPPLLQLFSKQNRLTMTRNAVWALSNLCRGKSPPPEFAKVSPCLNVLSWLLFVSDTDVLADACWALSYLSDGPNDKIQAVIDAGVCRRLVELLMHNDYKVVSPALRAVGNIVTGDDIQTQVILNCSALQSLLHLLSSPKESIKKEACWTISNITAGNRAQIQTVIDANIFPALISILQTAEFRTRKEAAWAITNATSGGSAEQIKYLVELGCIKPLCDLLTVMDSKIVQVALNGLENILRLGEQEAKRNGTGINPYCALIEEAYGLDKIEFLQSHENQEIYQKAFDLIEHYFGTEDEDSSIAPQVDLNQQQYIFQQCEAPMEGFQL
UniProt O14646: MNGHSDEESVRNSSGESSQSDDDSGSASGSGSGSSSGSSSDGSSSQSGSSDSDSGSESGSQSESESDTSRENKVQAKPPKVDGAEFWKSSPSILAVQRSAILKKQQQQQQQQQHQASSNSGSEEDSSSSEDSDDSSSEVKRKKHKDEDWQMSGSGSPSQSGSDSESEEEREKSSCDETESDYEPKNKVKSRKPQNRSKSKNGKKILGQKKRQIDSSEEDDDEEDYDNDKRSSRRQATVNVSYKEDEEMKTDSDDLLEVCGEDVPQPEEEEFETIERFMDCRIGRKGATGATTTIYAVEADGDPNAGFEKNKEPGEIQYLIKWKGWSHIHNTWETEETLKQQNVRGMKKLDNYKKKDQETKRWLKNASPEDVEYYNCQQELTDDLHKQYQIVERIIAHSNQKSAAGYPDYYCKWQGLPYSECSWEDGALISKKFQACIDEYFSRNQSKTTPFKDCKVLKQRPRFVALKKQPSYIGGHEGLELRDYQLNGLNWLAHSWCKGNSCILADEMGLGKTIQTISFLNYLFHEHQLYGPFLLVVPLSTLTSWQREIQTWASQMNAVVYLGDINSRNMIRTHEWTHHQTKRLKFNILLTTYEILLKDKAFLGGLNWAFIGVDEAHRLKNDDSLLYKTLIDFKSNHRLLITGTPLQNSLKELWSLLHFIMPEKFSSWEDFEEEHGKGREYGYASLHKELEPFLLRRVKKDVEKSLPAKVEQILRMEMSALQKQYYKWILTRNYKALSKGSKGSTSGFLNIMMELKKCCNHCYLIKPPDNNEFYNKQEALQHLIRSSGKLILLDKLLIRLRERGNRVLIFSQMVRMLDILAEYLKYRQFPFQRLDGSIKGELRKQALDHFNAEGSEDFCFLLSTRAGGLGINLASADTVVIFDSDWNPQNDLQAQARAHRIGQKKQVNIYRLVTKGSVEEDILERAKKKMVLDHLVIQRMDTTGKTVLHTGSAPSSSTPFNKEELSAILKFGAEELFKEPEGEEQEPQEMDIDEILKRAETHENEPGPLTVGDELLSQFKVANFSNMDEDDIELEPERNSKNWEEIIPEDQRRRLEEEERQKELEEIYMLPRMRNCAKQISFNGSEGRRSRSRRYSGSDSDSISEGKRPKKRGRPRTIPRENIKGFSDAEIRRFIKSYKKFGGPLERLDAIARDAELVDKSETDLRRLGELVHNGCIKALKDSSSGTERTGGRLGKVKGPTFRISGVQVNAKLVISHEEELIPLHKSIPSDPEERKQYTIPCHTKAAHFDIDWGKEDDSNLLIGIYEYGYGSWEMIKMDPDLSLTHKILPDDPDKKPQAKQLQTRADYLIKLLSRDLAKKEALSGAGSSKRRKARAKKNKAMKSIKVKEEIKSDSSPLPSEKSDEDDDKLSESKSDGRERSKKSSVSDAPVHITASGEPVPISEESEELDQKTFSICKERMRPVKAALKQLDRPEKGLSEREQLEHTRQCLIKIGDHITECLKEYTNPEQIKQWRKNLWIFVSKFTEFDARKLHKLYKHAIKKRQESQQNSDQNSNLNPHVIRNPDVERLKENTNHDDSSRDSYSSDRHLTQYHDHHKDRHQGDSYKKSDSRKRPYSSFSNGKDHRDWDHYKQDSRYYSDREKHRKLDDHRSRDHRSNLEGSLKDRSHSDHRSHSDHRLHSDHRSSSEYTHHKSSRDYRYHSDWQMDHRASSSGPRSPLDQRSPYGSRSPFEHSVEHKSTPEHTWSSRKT
UniProt Q6X4U4, residues 24-206: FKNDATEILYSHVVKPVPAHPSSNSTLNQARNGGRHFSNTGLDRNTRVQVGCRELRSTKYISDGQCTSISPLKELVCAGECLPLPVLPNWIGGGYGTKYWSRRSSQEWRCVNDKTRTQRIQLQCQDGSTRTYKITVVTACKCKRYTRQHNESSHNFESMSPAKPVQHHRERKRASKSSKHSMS
UniProt Q9Y297: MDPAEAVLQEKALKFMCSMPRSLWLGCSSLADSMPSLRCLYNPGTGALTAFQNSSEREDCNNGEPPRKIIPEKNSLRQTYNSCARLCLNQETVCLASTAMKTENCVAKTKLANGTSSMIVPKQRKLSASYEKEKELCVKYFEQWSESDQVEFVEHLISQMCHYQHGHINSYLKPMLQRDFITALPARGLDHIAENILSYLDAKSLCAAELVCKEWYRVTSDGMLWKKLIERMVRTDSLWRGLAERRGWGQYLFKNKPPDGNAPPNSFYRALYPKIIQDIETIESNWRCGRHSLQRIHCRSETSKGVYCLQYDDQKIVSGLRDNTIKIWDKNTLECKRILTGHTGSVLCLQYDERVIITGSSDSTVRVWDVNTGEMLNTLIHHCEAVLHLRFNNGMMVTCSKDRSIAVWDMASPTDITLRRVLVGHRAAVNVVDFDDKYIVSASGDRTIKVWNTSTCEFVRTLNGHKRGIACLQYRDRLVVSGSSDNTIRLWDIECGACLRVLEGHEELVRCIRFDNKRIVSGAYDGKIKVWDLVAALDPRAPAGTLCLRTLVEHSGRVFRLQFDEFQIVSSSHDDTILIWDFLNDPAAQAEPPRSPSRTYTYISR

How the values were obtained:
[1] = biological target: FLAG-KPNA3 (importin-α family karyopherin) (UniProt O00505); experiment: co-IP; 293T cells co-transfected with SOSTDC1 and FLAG-tagged KPNA vectors for 36 h, then Olaparib for 4 h; lysates on anti-FLAG magnetic beads; immunoblot
[2] = biological target: FLAG-KPNA1 (importin-α family karyopherin) (UniProt P52294); experiment: as above
[3] = biological target: HA-tagged full-length CHD1 (chromatin helicase DNA-binding factor), transfected (UniProt O14646); experiment: co-IP; co-IP of β-TrCP and CHD1 from cells in the presence or absence of SOSTDC1 (Figure 5M); co-IP of β-TrCP with CHD1 (Figure S10A)
[4] = biological target: Purified FLAG-tagged CHD1 recombinant protein (GST fusion from pGEX-6p-1) (UniProt O14646); experiment: co-IP; in vitro co-IP of CHD1 and β-TrCP in the presence or absence of SOSTDC1; GST-fusion proteins purified from E. coli BL21; both purified
[5] = biological target: HA-tagged full-length CHD1 (chromatin helicase DNA-binding factor), transfected (UniProt O14646); experiment: co-IP; 293T cells transfected with HA-tagged CHD1 (full length or truncated mutants a, b, c) and FLAG-tagged SOSTDC1; magnetic beads with antibodies to FLAG or HA; western blot (cells of Figure 4C not named)
[6] = biological target: Purified FLAG-tagged CHD1 recombinant protein (GST fusion from pGEX-6p-1) (UniProt O14646); experiment: co-IP; in vitro co-IP: purified HA-tagged SOSTDC1 and FLAG-tagged CHD1 recombinant proteins, anti-FLAG magnetic beads, western blot; both purified
[7] = biological target: FLAG-tagged SOSTDC1 stably overexpressed in SUM159 cells (UniProt Q6X4U4); experiment: co-IP; nuclear lysate of FLAG-tagged SOSTDC1-overexpressing SUM159 cells, anti-FLAG magnetic beads, western blot
[8] = biological target: FLAG-tagged SOSTDC1 stably overexpressed in SUM159 cells (UniProt Q6X4U4); experiment: co-IP; cytoplasmic lysate of FLAG-tagged SOSTDC1-overexpressing SUM159 cells, anti-FLAG magnetic beads, western blot
[9] = biological target: FLAG-tagged SOSTDC1 stably overexpressed in SUM159 cells (UniProt Q6X4U4); experiment: co-IP; co-IP of SOSTDC1 and CHD1 with or without 1 µmol/L Olaparib for 12 h; cells and constructs not named in the legend
[10] = biological target: HA-tagged SOSTDC1, transfected into 293T cells (UniProt Q6X4U4); experiment: co-IP; 293T cells transfected with HA-tagged SOSTDC1 and FLAG-tagged wild type or β-TrCP-binding-motif mutants of CHD1; anti-HA magnetic beads; western blot

SOSTDC1 (tag not stated), co-transfected into 293T cells (from UniProt Q6X4U4 24-206)
binding [1]: binds
binding [2]: binds
binding [3]: binds

Purified β-TrCP recombinant protein (GST fusion from pGEX-6p-1) (from UniProt Q9Y297 1-605)
binding [4]: binds

FLAG-tagged SOSTDC1 (sclerostin domain containing protein 1), transfected into 293T cells (from UniProt Q6X4U4 24-206)
binding [5]: binds

FLAG-tagged β-TrCP (β-transducin repeat-containing protein), overexpressed in cells (from UniProt Q9Y297 1-605)
binding [3]: binds

Purified HA-tagged SOSTDC1 recombinant protein (GST fusion from pGEX-6p-1) (from UniProt Q6X4U4 24-206)
binding [6]: binds

Endogenous CHD1 of SUM159 cells (from UniProt O14646 1-1710)
binding [7]: binds
binding [8]: no binding (condition: in the cytoplasmic lysate)
binding [9]: binds

FLAG-tagged wild type CHD1, transfected into 293T cells (from UniProt O14646 1-1710)
binding [10]: binds
